The list shows a part of the results.
Compound: C[C@H](C1=CC=C(C=C1)C(=O)NC2=C3C=CNC3=NC=C2)N
Experiment: log2 fold change, soluble protein after heating vs DMSO (PISA); higher = thermal stabilisation; K562 lysate, 10 uM; active = over 0.2 and 3.5 SD of the protein, either way, in both replicates (recomputed)
Summary of the method: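 Soluble protein was defined as the supernatant remaining after 21,000xg for 90 min, following pooling of heated aliquots and adjustment to 0.5% NP-40 at 4°C. Before that, crude K562 extract at 1 mg/mL protein in PBS pH 7.4 with 1 mM MgCl2 was treated with 10 μM compound for 30 min and heated for 3 min across 48°C-58°C. Quantification used TMTpro 16plex LC-MS/MS with channel sums equalised, and values are log-two fold changes in thermal stability relative to solvent controls from duplicates.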

Amino acid sequences for entries named in this document (tags omitted). A change or cut given only in a name is not applied to a line headed by its entry.
UniProt O00487, whole entry, looked up: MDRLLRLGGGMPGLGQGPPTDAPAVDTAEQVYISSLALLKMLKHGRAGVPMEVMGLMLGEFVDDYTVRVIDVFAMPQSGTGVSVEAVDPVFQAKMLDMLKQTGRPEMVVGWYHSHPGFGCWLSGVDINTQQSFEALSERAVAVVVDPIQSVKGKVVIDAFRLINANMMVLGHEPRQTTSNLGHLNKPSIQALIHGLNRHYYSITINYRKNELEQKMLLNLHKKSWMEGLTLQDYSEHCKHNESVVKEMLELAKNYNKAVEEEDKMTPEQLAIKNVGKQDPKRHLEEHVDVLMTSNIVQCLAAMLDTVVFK
UniProt Q9UI38: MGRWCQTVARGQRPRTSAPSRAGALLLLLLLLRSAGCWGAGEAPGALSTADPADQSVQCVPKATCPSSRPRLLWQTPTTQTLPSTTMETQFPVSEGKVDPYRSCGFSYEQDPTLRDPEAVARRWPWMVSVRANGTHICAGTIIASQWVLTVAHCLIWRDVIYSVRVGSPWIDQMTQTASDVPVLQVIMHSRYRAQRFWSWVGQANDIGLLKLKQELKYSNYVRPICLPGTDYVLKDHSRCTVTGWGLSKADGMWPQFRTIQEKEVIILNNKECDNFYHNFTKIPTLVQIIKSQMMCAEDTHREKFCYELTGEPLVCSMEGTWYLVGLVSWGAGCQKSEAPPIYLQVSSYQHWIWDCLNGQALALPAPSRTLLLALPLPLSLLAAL
UniProt Q86YD1: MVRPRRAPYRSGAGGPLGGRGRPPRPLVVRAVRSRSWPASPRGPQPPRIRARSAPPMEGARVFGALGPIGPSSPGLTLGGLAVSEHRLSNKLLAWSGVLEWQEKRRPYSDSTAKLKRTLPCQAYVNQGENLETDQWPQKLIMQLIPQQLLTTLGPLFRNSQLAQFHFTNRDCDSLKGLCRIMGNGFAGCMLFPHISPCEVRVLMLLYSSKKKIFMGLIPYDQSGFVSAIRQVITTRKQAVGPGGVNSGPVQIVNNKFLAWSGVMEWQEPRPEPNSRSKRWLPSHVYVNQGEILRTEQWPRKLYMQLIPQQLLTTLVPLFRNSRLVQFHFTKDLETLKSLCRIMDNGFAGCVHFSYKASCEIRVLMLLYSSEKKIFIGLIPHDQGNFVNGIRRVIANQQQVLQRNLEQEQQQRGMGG
UniProt Q12913: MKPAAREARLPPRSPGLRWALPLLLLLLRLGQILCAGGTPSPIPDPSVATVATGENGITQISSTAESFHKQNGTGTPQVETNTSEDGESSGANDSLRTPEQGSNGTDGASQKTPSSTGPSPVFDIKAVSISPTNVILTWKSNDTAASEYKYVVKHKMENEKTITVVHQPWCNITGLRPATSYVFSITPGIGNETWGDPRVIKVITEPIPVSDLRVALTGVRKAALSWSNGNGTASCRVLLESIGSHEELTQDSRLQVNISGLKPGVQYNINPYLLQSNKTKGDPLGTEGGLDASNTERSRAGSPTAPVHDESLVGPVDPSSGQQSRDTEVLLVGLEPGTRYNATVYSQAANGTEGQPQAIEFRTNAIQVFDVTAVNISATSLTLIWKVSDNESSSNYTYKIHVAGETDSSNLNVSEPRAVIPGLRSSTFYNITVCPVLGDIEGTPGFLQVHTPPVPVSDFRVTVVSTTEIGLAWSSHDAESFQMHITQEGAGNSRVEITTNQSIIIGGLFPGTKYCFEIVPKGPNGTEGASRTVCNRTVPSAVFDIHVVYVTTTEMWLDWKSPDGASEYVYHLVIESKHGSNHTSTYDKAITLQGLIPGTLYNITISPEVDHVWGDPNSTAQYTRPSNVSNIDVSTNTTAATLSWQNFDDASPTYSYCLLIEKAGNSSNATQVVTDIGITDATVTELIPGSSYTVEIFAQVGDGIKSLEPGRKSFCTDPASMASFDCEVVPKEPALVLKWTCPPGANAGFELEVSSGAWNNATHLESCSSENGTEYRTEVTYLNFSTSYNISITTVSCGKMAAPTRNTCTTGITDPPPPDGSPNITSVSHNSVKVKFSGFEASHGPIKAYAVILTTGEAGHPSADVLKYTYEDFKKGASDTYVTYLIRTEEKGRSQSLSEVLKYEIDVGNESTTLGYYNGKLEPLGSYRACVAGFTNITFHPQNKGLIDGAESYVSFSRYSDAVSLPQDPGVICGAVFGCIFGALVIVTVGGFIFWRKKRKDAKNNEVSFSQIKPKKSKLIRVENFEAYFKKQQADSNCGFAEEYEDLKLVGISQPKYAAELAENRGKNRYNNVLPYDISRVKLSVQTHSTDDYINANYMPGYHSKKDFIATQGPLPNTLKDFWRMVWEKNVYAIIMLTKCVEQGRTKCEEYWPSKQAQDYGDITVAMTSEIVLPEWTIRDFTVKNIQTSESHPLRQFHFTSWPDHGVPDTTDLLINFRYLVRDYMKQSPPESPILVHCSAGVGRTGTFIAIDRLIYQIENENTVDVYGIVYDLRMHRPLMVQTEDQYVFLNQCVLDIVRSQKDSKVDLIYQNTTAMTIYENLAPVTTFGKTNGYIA
UniProt P40306: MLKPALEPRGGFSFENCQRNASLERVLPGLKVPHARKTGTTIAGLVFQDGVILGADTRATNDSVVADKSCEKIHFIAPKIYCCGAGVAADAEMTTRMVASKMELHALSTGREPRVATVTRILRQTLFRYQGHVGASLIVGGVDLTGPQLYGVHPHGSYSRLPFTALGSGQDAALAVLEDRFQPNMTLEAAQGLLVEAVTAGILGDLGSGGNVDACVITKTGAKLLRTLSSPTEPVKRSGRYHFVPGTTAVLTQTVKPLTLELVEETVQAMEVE
UniProt Q6NUJ5: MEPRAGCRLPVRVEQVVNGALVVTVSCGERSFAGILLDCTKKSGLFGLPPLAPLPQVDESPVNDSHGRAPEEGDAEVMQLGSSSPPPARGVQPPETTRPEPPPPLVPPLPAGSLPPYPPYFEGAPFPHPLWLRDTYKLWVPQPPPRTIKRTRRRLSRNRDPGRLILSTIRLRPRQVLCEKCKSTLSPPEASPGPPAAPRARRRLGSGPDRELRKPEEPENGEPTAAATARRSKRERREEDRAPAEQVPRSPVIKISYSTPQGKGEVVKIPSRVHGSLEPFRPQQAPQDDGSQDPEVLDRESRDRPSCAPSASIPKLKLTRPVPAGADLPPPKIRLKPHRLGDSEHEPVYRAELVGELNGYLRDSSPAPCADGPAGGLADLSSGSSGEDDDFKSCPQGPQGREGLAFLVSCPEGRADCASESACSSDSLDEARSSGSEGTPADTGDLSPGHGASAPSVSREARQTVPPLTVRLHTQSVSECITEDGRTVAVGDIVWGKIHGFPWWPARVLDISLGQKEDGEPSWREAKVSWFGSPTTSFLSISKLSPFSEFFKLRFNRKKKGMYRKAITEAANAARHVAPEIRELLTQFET
UniProt P28062: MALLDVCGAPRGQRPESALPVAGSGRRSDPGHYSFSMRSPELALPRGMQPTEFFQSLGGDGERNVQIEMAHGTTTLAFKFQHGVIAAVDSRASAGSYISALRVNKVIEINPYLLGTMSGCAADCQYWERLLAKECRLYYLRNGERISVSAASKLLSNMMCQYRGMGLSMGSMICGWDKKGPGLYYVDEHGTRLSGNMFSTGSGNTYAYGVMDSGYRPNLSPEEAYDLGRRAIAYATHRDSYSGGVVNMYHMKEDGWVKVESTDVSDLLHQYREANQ
UniProt P35236: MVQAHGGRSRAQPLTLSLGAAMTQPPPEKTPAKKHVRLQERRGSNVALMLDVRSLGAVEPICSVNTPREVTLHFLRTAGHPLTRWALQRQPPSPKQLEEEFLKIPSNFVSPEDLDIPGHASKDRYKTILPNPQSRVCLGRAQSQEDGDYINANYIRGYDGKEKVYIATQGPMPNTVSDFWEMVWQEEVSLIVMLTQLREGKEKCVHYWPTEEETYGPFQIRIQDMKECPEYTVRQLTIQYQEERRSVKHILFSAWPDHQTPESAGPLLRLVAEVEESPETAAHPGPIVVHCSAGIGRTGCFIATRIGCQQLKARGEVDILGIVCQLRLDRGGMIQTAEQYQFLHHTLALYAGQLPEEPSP
UniProt Q9UHX1: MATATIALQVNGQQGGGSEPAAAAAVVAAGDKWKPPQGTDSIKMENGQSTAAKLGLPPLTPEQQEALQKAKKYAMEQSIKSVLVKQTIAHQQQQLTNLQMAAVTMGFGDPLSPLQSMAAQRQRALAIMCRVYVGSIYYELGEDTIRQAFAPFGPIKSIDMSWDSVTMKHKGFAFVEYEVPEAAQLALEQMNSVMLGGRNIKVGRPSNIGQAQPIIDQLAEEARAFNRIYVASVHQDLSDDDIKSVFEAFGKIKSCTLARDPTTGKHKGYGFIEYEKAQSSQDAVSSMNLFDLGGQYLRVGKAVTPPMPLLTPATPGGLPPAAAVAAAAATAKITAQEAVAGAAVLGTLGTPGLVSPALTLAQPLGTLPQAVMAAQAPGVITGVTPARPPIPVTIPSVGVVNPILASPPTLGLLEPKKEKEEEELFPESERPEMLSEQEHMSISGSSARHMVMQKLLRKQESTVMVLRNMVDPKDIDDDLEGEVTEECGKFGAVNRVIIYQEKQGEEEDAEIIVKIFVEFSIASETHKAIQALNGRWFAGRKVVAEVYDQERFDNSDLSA

log2 fold change, inactive:
PSMD14 (UniProt O00487) 0.014
PRSS50 (UniProt Q9UI38) -0.033
PTOV1 (UniProt Q86YD1) 0.066
PTPRJ (UniProt Q12913) -0.206
PSMB10 (UniProt P40306) 0.003
PWWP2B (UniProt Q6NUJ5) -0.336
PSMB8 (UniProt P28062) -0.01
PSIP1 (UniProt V9GYT7) -0.054
PSEN2 (UniProt P49810) -0.248
PTPN7 isoform 3 (UniProt P35236) -0.028
PRRC2A (UniProt P48634) 0.011
PSMA7 (UniProt H0Y586) 0.052

Reprinted at random: 2 records from the list
log2 fold change, inactive:
PSMB10 (UniProt P40306) 0.003
PRRC2A (UniProt P48634) 0.011

Following part.

log2 fold change, active:
PUF60 isoform 2 (UniProt Q9UHX1) 1.05

Source: the supplement of paper PMC10849652
